{"source": "PubChem BioAssay AID1259308 (NCATS, 2017)", "aim": "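Candidate targets for better recombinant protein yield in mammalian cells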 (primary screen)", "system": "human HEK293 embryonic kidney cells stably expressing firefly luciferase (HEK-CMV-Luc2-Hygro)", "knock-down reagent": "single siRNA against human genes, 0.8 pmol siRNA per well", "time to read-out": "72 h", "detection": "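Reporter luminescence and viable-cell signal on separate replicate plates, given as percent of non-targeting control and median/MAD z-scores, plus per-cell luciferase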", "reading the numbers": "total luciferase, z-score: higher = more reporter protein produced", "rule for the call": "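Active when the median/MAD z-score for overall luciferase is greater than 3; a gene was taken forward for validation with new siRNAs if at least two of its three siRNAs passed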", "meaning of the calls": "active = raised luciferase; inactive = no rise", "note": "The deposit covers about 59,000 reagents; shown is a random part of them. Of all reagents, about 1,510 (2.6%) were called active. 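Calls use total luciferase alone and ignore viability, so some active siRNAs may act by altering cell number.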 Entries without a mark were called inactive. Reagents against one gene are numbered here. Not all columns of the deposit are shown."}
{"Gene": "IBA57", "reagent": 1, "total luciferase, z-score": 0.266}
{"Gene": "IBA57", "reagent": 2, "total luciferase, z-score": -0.227}
{"Gene": "IBA57", "reagent": 3, "total luciferase, z-score": -0.797}
{"Gene": "OR7D4", "reagent": 1, "total luciferase, z-score": -1.63}
{"Gene": "OR7D4", "reagent": 2, "total luciferase, z-score": -1.03}
{"Gene": "OR7D4", "reagent": 3, "total luciferase, z-score": 0.601}
{"Gene": "TERF2IP", "reagent": 1, "total luciferase, z-score": 0.54}
{"Gene": "TERF2IP", "reagent": 2, "total luciferase, z-score": -0.116}
{"Gene": "TERF2IP", "reagent": 3, "total luciferase, z-score": 0.532}
{"Gene": "WDR62", "reagent": 1, "total luciferase, z-score": -1.9}
{"Gene": "WDR62", "reagent": 2, "total luciferase, z-score": -0.528}
{"Gene": "WDR62", "reagent": 3, "total luciferase, z-score": 2.63}

A portion from the list above:
{"Gene": "IBA57", "reagent": 1, "total luciferase, z-score": 0.266}
{"Gene": "IBA57", "reagent": 2, "total luciferase, z-score": -0.227}
{"Gene": "IBA57", "reagent": 3, "total luciferase, z-score": -0.797}

More entries follow.
{"Gene": "FAS", "reagent": 1, "total luciferase, z-score": 0.0766}
{"Gene": "FAS", "reagent": 2, "total luciferase, z-score": -0.592}
{"Gene": "FAS", "reagent": 3, "total luciferase, z-score": -1.38}
{"Gene": "ERCC6L", "reagent": 1, "total luciferase, z-score": 0.239}
{"Gene": "ERCC6L", "reagent": 2, "total luciferase, z-score": -0.163}
{"Gene": "ERCC6L", "reagent": 3, "total luciferase, z-score": -0.299}
{"Gene": "CHML", "reagent": 1, "total luciferase, z-score": 1.03}
{"Gene": "CHML", "reagent": 2, "total luciferase, z-score": -0.384}
{"Gene": "CHML", "reagent": 3, "total luciferase, z-score": 0.403}
